No constants are given. Whether binding was seen depends on the method and setting. Some entries that bind do so weakly or less than the wild type.
Molecular target: integrin β1 (ITGB1) on the surface of human splenic fibroblasts (HSF) (human (endogenous in HSF)) (UniProt P05556)
Test: flow cytometry on cells; HSF incubated with PvSRA 50 μg/ml at room temperature for 2 h, detected with APC-anti-6xHis-tag; with or without pretreatment of the cells with anti-human ITGB1 antibody (1:50, 1 h, room temperature); only the binder purified

By UniProt entry, the sequences of proteins in these tests, tags left out.
UniProt P05556: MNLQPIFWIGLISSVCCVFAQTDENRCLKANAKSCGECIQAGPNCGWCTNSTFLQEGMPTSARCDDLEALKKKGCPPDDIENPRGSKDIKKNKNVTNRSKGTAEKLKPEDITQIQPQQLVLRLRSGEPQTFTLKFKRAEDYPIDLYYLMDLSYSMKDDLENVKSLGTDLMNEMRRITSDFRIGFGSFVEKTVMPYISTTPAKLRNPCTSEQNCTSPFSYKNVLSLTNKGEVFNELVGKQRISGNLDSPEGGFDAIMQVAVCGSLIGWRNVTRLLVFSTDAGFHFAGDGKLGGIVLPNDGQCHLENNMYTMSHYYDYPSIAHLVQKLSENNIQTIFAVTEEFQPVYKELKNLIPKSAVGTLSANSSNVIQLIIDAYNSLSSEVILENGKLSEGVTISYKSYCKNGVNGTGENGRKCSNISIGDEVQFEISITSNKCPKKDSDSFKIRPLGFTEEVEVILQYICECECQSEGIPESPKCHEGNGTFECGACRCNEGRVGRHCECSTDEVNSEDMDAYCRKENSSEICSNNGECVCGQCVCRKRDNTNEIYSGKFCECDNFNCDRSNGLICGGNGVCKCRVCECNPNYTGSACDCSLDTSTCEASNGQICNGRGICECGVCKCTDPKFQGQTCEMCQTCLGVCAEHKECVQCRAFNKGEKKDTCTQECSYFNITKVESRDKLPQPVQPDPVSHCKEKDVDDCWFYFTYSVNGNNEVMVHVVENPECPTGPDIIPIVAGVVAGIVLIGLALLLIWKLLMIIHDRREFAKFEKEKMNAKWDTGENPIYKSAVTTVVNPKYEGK

For “recombinant Plasmodium vivax surface-related antigen (PvSRA) functional region, aa 25-321, 6xHis (from UniProt A5K0T6 25-321) (domain or fragment)”, the binding was “binds”.

— article PMC8685506
